# Laboratory results from the supplement of paper PMC12819154, “High-throughput peptide-centric local stability assay extends protein–ligand identification to membrane proteins, tissues and bacteria” (Nature Structural & Molecular Biology, 2025).
# Amino acid sequences for entries named in this document (tags omitted). A change or cut given only in a name is not applied to a line headed by its entry.
# UniProt Q9JKK1: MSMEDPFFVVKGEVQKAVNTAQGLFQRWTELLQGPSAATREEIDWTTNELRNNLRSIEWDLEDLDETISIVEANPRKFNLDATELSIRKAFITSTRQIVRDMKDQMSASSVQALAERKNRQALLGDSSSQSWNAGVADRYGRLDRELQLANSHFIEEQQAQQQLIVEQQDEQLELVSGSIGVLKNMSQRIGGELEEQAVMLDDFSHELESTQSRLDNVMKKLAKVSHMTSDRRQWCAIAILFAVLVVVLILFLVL
# UniProt Q9JJU9, whole entry: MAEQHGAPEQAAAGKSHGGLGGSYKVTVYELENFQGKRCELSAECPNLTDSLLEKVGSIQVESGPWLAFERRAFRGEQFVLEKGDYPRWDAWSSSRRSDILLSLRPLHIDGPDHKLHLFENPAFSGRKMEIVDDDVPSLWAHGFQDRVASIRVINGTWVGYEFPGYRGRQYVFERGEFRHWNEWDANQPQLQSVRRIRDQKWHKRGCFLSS
# UniProt Q9JKX3: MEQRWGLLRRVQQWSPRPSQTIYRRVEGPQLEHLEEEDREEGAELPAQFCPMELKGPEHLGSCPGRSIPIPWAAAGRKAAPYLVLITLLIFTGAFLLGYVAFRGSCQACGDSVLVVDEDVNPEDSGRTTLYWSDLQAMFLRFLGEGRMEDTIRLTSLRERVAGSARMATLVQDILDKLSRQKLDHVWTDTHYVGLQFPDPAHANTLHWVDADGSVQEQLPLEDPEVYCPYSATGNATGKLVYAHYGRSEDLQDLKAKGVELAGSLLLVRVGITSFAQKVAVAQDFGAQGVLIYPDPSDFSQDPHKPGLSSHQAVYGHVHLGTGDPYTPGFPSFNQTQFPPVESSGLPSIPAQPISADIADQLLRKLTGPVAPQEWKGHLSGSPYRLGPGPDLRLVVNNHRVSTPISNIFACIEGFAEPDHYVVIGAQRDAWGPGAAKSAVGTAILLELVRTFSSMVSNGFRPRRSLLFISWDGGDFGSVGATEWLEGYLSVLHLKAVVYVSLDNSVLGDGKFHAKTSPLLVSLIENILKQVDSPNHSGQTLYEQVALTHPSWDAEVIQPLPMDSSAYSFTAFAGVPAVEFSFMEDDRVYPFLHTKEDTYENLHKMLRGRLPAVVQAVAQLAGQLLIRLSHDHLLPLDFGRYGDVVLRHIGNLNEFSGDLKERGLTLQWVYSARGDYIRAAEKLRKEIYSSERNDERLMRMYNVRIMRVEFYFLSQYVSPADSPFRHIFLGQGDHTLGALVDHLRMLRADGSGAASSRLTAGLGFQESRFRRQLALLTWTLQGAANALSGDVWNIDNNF
# UniProt Q9JJZ6: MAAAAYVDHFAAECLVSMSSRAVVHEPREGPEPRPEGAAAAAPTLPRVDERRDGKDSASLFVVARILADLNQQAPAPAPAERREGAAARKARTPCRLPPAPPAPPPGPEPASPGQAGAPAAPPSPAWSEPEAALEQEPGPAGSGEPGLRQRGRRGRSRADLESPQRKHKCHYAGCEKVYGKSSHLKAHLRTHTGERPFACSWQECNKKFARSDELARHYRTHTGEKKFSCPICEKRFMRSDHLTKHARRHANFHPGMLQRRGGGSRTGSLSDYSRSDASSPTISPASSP
# UniProt Q9JLI6: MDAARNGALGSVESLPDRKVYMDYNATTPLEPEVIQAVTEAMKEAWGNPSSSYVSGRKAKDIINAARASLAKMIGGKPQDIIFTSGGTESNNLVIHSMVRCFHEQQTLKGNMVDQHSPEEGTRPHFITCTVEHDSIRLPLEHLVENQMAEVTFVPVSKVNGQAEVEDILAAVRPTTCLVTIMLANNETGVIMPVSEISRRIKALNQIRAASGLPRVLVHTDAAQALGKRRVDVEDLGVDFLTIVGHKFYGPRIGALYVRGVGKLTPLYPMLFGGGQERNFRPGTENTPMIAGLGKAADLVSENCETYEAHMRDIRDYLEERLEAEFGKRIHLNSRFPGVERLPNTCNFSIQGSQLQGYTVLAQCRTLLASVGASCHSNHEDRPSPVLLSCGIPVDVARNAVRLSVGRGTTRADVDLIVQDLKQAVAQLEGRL
# The list shows a part of the results. Small differences around the control level are noise.
# Compound: CN[C@@H]1C[C@H]2O[C@@](C)([C@@H]1OC)n1c3ccccc3c3c4c(c5c6ccccc6n2c5c31)C(=O)NC4 [staurosporine]
# Experiment: log2 fold change of tryptic peptide abundance, ligand vs vehicle (limited proteolysis) (log2 ratio); higher = more trypsin-susceptible (destabilized)
# Settings: ligand concentration: 20 uM; sample: mouse liver crude lysate; replicate design: treated separately
row,Target,log2 fold change
1,"UniProt Q9JKK1 (peptide sequence: KFNLDATELSIR, peptide start residue: 77)",-0.0865
2,"UniProt Q9JJU9 (peptide sequence: LHLFENPAFSGR, peptide start residue: 116)",-0.194
3,"UniProt Q9JKX3 (peptide sequence: GPEHLGSCPGR, peptide start residue: 56)",0.158
4,"UniProt Q9JJZ6 (peptide sequence: HANFHPGMLQR, peptide start residue: 250)",0.142
5,"UniProt Q9JLI6 (peptide sequence: LEAEFGKR, peptide start residue: 322)",-0.667
